Data from the primary screen of doi:10.1371/journal.pone.0140310, rounded.

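Human melanoma cell lines in 1,536-well plates were treated with two drugs together for 72 h, then fixed, stained and imaged. The read-out is the fraction of cleaved-PARP-positive nuclei, in % of that fraction in the DMSO control; 200 means twice the control level of this apoptosis marker. Concentrations were fixed for each drug; these are the higher of two levels. The file gives one value for each pair and line, without errors, so small differences may be noise. The marker varies much from line to line, for technical or biological reasons.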
An unselected part of the screen is shown.
An entry leaves out what has no value listed here.

All values are for the listed drug together with palbociclib (200 nM): CC(=O)c1c(C)c2cnc(Nc3ccc(N4CCNCC4)cn3)nc2n(C2CCCC2)c1=O

Oc1nc(-c2ccc(C(F)(F)F)cc2)nc2c1CSCC2 at 10000 nM gave COLO 829: 70.2; COLO 800: 68.7; SK-MEL-2: 140; RPMI-7951: 61.2; A101D: 69.9. O=C(CCCCCCC(=O)Nc1ccccc1)NO at 400 nM gave COLO 829: 120; COLO 800: 245; SK-MEL-2: 31.5; RPMI-7951: 59.3; A101D: 149. For N#Cc1c(O)c2c(-c3ccc(-c4ccccc4O)cc3)csc2[nH]c1=O at 10000 nM the values were COLO 829: 96.2; COLO 800: 132; SK-MEL-2: 151; RPMI-7951: 434; A101D: 104. Results for Cc1cc([N+](=O)[O-])ccc1NS(=O)(=O)c1cc(Cl)ccc1Cl at 5000 nM are COLO 829: 65.8; COLO 800: 113; SK-MEL-2: 140; RPMI-7951: 184; A101D: 294. Results for O=C(Oc1ccc([N+](=O)[O-])cc1)N1CCC(C(O)(c2ccc3c(c2)OCO3)c2ccc3c(c2)OCO3)CC1 at 5000 nM are COLO 829: 46.9; COLO 800: 52.2; SK-MEL-2: 19.4; RPMI-7951: 89.7; A101D: 114. For CCCCCCCCCCCC1=C(O)C(=O)C=C(O)C1=O at 6000 nM the values were COLO 829: 66.0; COLO 800: 142; SK-MEL-2: 121; RPMI-7951: 88.6; A101D: 64.1.

For C[C@]12O[C@H](C[C@]1(O)CO)n1c3ccccc3c3c4c(c5c6ccccc6n2c5c31)CNC4=O at 20 nM the values were COLO 829: 138; COLO 800: 157; SK-MEL-2: 79.1; RPMI-7951: 210; A101D: 103. Nc1ncn([C@H]2C[C@H](O)[C@@H](CO)O2)c(=O)n1 at 500 nM gave COLO 829: 410; COLO 800: 132; SK-MEL-2: 91.9; RPMI-7951: 168; A101D: 163. Cc1cc(N2CCOCC2)cc2[nH]c(-c3c(NC[C@@H](O)c4cccc(Cl)c4)cc[nH]c3=O)nc12 at 1000 nM gave COLO 829: 84.5; COLO 800: 308; SK-MEL-2: 204; RPMI-7951: 85.2; A101D: 209. Results for COc1cc(N2CCC(N3CCN(C)CC3)CC2)ccc1Nc1ncc(Cl)c(Nc2ccccc2S(=O)(=O)C(C)C)n1 at 400 nM are COLO 829: 159; COLO 800: 177; SK-MEL-2: 68.6; RPMI-7951: 250; A101D: 189. For OCc1c[nH]c2ccccc12 at 4000 nM the values were COLO 829: 97.8; COLO 800: 96.5; SK-MEL-2: 20.8; RPMI-7951: 228; A101D: 159. Results for Cc1ccc(Nc2nccc(N(C)c3ccc4c(C)n(C)nc4c3)n2)cc1S(N)(=O)=O at 2000 nM are COLO 829: 322; COLO 800: 132; SK-MEL-2: 30.7; RPMI-7951: 174; A101D: 53.4.

With C=C(c1ccc(C(=O)O)cc1)c1cc2c(cc1C)C(C)(C)CCC2(C)C at 10000 nM the screen read COLO 829: 134; COLO 800: 45.0; SK-MEL-2: 89.5; RPMI-7951: 67.2; A101D: 94.8. CC(C)CCN1c2nc(Nc3cc(F)c(O)c(F)c3)ncc2N(C)C(=O)C1C (stereo unspecified) at 1000 nM gave COLO 829: 87.7; COLO 800: 61.4; SK-MEL-2: 188; RPMI-7951: 77.1; A101D: 123. For NC1(c2ccc(-c3nc4ccn5c(=O)[nH]nc5c4cc3-c3ccccc3)cc2)CCC1 at 2000 nM the values were COLO 829: 68.9; COLO 800: 59.4; SK-MEL-2: 51.9; RPMI-7951: 145; A101D: 121. Results for CCCS(=O)(=O)Nc1ccc(F)c(C(=O)c2c[nH]c3ncc(Cl)cc23)c1F at 400 nM are COLO 829: 199; COLO 800: 136; SK-MEL-2: 181; RPMI-7951: 81.0; A101D: 228. For Cc1cc(SCc2sc(-c3ccc(C(F)(F)F)c(F)c3)nc2C)ccc1OCC(=O)O at 10000 nM the values were COLO 829: 349; COLO 800: 122; SK-MEL-2: 174; RPMI-7951: 166; A101D: 177. With Cc1nc(Nc2ncc(C(=O)Nc3c(C)cccc3Cl)s2)cc(N2CCN(CCO)CC2)n1 at 20 nM the screen read COLO 829: 222; COLO 800: 88.2; SK-MEL-2: 88.0; RPMI-7951: 163; A101D: 248.

Results for NC(=O)Nc1cc(-c2cccc(F)c2)sc1C(=O)N[C@H]1CCCNC1 at 100 nM are COLO 829: 131; COLO 800: 114; SK-MEL-2: 45.4; RPMI-7951: 51.3; A101D: 186. With Cn1cncc1[C@@](N)(c1ccc(Cl)cc1)c1ccc2c(c1)c(-c1cccc(Cl)c1)cc(=O)n2C at 50 nM the screen read COLO 829: 278; COLO 800: 106; SK-MEL-2: 104; RPMI-7951: 50.0; A101D: 66.0. With CS(=O)(=O)c1ccc(C(=O)Nc2ccc(Cl)c(-c3ccccn3)c2)c(Cl)c1 at 5000 nM the screen read COLO 829: 54.7; COLO 800: 114; SK-MEL-2: 68.5; RPMI-7951: 89.5; A101D: 98.3. With CN(c1ncccc1CNc1nc(Nc2ccc3c(c2)CC(=O)N3)ncc1C(F)(F)F)S(C)(=O)=O at 400 nM the screen read COLO 829: 89.0; COLO 800: 62.2; SK-MEL-2: 35.6; RPMI-7951: 245; A101D: 108. Cn1c(=O)n(-c2ccc(C(C)(C)C#N)cc2)c2c3cc(-c4cnc5ccccc5c4)ccc3ncc21 at 20 nM gave COLO 829: 221; COLO 800: 198; SK-MEL-2: 186; RPMI-7951: 119; A101D: 202. Results for Nc1cccc2c1CN(C1CCC(=O)NC1=O)C2=O (stereo unspecified) at 5000 nM are COLO 829: 51.9; COLO 800: 108; SK-MEL-2: 118; RPMI-7951: 98.8; A101D: 101.

With O=C(O)c1ccc(-c2c[nH]c3ncc(-c4ccccc4)cc23)cc1C1CCCC1 at 800 nM the screen read COLO 829: 50.7; COLO 800: 78.8; SK-MEL-2: 120; RPMI-7951: 151; A101D: 298. For Cc1cn(-c2cc(NC(=O)c3ccc(C)c(Nc4nccc(-c5cccnc5)n4)c3)cc(C(F)(F)F)c2)cn1 at 1000 nM the values were COLO 829: 34.6; COLO 800: 79.3; SK-MEL-2: 81.3; RPMI-7951: 147; A101D: 202. Cc1cc(Nc2cc(N3CCN(C)CC3)nc(/C=C/c3ccccc3)n2)n[nH]1 at 200 nM gave COLO 829: 74.0; COLO 800: 153; SK-MEL-2: 79.9; RPMI-7951: 137; A101D: 111. Results for CS(=O)(=O)CCNCc1ccc(-c2ccc3ncnc(Nc4ccc(OCc5cccc(F)c5)c(Cl)c4)c3c2)o1 at 4000 nM are COLO 829: 38.3; COLO 800: 67.9; SK-MEL-2: 18.1; RPMI-7951: 89.8; A101D: 104. With O=C(Nc1cccc(Cl)c1)Nc1ncc(CCNc2ncnc3ccsc23)s1 at 4 nM the screen read COLO 829: 132; COLO 800: 90.5; SK-MEL-2: 128; RPMI-7951: 98.4; A101D: 81.4. C[C@@H](Oc1cc(-c2cnn(C3CCNCC3)c2)cnc1N)c1c(Cl)ccc(F)c1Cl at 1000 nM gave COLO 829: 36.0; COLO 800: 227; SK-MEL-2: 113; RPMI-7951: 132; A101D: 108.

O=C(O)c1ccc2c(c1)nc(Nc1cccc(Cl)c1)c1ccncc12 at 2000 nM gave COLO 829: 282; COLO 800: 36.2; SK-MEL-2: 390; RPMI-7951: 166; A101D: 98.1. With COc1ccc(COc2ccc(Cc3cnc(N)nc3N)cc2OC)cc1 at 5000 nM the screen read COLO 829: 89.9; COLO 800: 142; RPMI-7951: 94.5; A101D: 195.

The last 2 entries again:

* O=C(O)c1ccc2c(c1)nc(Nc1cccc(Cl)c1)c1ccncc12 at 2000 nM : COLO 829: 282; COLO 800: 36.2; SK-MEL-2: 390; RPMI-7951: 166; A101D: 98.1
* COc1ccc(COc2ccc(Cc3cnc(N)nc3N)cc2OC)cc1 at 5000 nM : COLO 829: 89.9; COLO 800: 142; RPMI-7951: 94.5; A101D: 195